For four molecules, binding results are on record in publication PMC11523043.

For test [1], the target named is T1, Flag-tagged USP36 (UniProt Q9P275).
T1 sequence: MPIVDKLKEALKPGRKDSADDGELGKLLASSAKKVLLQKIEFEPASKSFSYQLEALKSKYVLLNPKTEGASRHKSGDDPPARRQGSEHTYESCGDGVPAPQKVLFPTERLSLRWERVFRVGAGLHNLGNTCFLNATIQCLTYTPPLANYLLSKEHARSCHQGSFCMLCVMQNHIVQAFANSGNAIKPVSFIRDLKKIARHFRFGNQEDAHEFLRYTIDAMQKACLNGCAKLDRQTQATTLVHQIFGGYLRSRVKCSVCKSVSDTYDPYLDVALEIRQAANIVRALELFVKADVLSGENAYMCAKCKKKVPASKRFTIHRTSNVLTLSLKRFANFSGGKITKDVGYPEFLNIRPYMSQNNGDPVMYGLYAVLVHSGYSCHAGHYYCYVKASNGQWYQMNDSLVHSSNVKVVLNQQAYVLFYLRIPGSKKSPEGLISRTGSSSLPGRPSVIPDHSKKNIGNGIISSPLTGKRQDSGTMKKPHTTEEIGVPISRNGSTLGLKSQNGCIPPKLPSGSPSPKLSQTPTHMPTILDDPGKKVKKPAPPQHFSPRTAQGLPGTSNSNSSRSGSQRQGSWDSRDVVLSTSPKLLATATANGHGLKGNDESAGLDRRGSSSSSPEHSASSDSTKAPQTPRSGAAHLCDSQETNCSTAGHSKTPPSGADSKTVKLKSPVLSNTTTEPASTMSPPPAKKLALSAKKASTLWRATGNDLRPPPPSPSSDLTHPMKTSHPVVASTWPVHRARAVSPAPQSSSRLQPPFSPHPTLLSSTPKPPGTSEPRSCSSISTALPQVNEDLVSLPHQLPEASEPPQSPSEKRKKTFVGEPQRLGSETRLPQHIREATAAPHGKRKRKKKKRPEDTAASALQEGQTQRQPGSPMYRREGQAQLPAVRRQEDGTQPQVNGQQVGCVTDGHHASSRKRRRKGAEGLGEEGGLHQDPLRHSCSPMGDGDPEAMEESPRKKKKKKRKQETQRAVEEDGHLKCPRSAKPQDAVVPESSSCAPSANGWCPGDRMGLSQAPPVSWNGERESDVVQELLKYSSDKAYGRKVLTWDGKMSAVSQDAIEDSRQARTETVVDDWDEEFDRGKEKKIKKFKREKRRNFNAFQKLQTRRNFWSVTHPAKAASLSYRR
Nature of the test: co-IP; Co-IP experiments of Supplementary Fig. S4; cells and bait not given.

For test [2], the target named is T1, Flag-tagged USP36. Nature of the test: co-IP; lysates of cells (HEK293, HeLa or H1299) transfected with the Flag-tagged bait, anti-Flag (M2) agarose, 4°C for 4 hours, 50 mmol/L Tris-HCl pH 8.0, 0.5% Nonidet P-40, 150 mmol/L NaCl; endogenous partner detected by IB; for Flag-USP36 also in the presence of 100 μg/mL RNase A and 100 U/mL RNase T1.
In test [3] the target is T2, Flag-USP36 C-terminal nucleolar localization signal (NoLS)-containing region (amino acids 801-1121) (UniProt Q9P275).
T2 sequence: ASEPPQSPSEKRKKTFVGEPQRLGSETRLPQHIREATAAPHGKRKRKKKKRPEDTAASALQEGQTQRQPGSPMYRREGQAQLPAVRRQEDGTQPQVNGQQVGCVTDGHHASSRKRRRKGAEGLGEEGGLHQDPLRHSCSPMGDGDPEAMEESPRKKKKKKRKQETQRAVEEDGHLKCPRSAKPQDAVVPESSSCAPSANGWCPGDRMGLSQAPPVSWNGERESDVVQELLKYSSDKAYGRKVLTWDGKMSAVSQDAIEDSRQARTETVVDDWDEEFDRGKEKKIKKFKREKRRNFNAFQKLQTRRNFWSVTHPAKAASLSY
Described as above.

Test [4] addresses T1, Flag-tagged USP36. Kind of test: co-IP; soluble nucleolar fraction of HeLa cells stably expressing Flag-USP36 (high-salt RIPA lysis, diluted), anti-Flag antibody, followed by IB.
The target in test [5] is T3, Flag-Las1L middle coiled-coil domain (amino acids 189-613) (UniProt Q9Y4W2).
T3 sequence: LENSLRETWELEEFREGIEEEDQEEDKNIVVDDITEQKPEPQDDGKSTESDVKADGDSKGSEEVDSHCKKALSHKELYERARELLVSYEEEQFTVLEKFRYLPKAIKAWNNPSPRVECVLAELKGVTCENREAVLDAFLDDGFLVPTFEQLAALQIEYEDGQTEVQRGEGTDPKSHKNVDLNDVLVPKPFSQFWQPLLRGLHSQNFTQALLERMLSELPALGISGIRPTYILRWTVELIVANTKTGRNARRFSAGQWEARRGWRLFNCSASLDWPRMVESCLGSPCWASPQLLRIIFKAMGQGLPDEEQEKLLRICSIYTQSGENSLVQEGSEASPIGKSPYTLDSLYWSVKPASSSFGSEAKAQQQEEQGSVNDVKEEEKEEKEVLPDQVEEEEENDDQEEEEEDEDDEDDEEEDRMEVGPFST
Kind of test: co-IP; H1299 cells co-transfected with V5-USP36 and Flag-Las1L or Flag-Nol9 or their deletion mutants; Co-IP with anti-Flag antibody, followed by IB.

In test [6] the target is T4, Flag-Nol9 N-terminal domain (amino acids 1-300) (human) (UniProt Q5SY16).
T4 sequence: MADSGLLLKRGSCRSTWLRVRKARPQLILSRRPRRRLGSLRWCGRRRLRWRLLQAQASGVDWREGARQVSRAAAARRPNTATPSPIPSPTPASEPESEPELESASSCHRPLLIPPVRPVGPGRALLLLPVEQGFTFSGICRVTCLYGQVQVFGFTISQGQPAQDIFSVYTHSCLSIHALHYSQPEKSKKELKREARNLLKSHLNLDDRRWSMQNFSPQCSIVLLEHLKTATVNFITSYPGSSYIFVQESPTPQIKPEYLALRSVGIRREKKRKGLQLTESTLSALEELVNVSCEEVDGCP
Described as above.

No constants are given. Whether binding was seen depends on the method and setting. Binding seen in cells or lysates may run through a third protein. Some binding calls cover weakened binding; strength is not graded here. Where a sequence is shown, tags or fusion partners need not be part of it.

B1: TEX10 (protein, UniProt Q9NXF1 1-929)
chain: MTKKRKRQHDFQKVKLKVGKKKPKLQNATPTNFKTKTIHLPEQLKEDGTLPTNNRKLNIKDLLSQMHHYNAGVKQSALLGLKDLLSQYPFIIDAHLSNILSEVTAVFTDKDANVRLAAVQLLQFLAPKIRAEQISPFFPLVSAHLSSAMTHITEGIQEDSLKVLDILLEQYPALITGRSSILLKNFVELISHQQLSKGLINRDRSQSWILSVNPNRRLTSQQWRLKVLVRLSKFLQALADGSSRLRESEGLQEQKENPHATSNSIFINWKEHANDQQHIQVYENGGSQPNVSSQFRLRYLVGGLSGVDEGLSSTENLKGFIEIIIPLLIECWVEAVPPQLATPVGNGIEREPLQVMQQVLNIISLLWKLSKQQDETHKLESWLRKNYLIDFKHHFMSRFPYVLKEITKHKRKEPNKSIKHCTVLSNNIDHLLLNLTLSDIMVSLANASTLQKDCSWIEMIRKFVTETLEDGSRLNSKQLNRLLGVSWRLMQIQPNREDTETLIKAVYTLYQQRGLILPVRTLLLKFFSKIYQTEELRSCRFRYRSKVLSRWLAGLPLQLAHLGSRNPELSTQLIDIIHTAAARANKELLKSLQATALRIYDPQEGAVVVLPADSQQRLVQLVYFLPSLPADLLSRLSRCCIMGRLSSSLAAMLIGILHMRSSFSGWKYSAKDWLMSDVDYFSFLFSTLTGFSKEELTWLQSLRGVPHVIQTQLSPVLLYLTDLDQFLHHWDVTEAVFHSLLVIPARSQNFDILQSAISKHLVGLTVIPDSTAGCVFGVICKLLDHTCVVSETLLPFLASCCYSLLYFLLTIEKGEAEHLRKRDKLWGVCVSILALLPRVLRLMLQSLRVNRVGPEELPVVGQLLRLLLQHAPLRTHMLTNAILVQQIIKNITTLKSGSVQEQWLTDLHYCFNVYITGHPQGPSALATVY
Regarding B1, in test [1], the binding result is reported as “binds”.

B2: WDR18 (protein, UniProt Q9BV38 1-432)
chain: MAAPMEVAVCTDSAAPMWSCIVWELHSGANLLTYRGGQAGPRGLALLNGEYLLAAQLGKNYISAWELQRKDQLQQKIMCPGPVTCLTASPNGLYVLAGVAESIHLWEVSTGNLLVILSRHYQDVSCLQFTGDSSHFISGGKDCLVLVWSLCSVLQADPSRIPAPRHVWSHHALPITDLHCGFGGPLARVATSSLDQTVKLWEVSSGELLLSVLFDVSIMAVTMDLAEHHMFCGGSEGSIFQVDLFTWPGQRERSFHPEQDAGKVFKGHRNQVTCLSVSTDGSVLLSGSHDETVRLWDVQSKQCIRTVALKGPVTNAAILLAPVSMLSSDFRPSLPLPHFNKHLLGAEHGDEPRHGGLTLRLGLHQQGSEPSYLDRTEQLQAVLCSTMEKSVLGGQDQLRVRVTELEDEVRNLRKINRDLFDFSTRFITRPAK
Turning to B2, the binding entry in test [1] was “binds”.

B3: endogenous Nol9 (enzyme, UniProt Q5SY16 1-702)
chain: MADSGLLLKRGSCRSTWLRVRKARPQLILSRRPRRRLGSLRWCGRRRLRWRLLQAQASGVDWREGARQVSRAAAARRPNTATPSPIPSPTPASEPESEPELESASSCHRPLLIPPVRPVGPGRALLLLPVEQGFTFSGICRVTCLYGQVQVFGFTISQGQPAQDIFSVYTHSCLSIHALHYSQPEKSKKELKREARNLLKSHLNLDDRRWSMQNFSPQCSIVLLEHLKTATVNFITSYPGSSYIFVQESPTPQIKPEYLALRSVGIRREKKRKGLQLTESTLSALEELVNVSCEEVDGCPVILVCGSQDVGKSTFNRYLINHLLNSLPCVDYLECDLGQTEFTPPGCISLLNITEPVLGPPFTHLRTPQKMVYYGKPSCKNNYENYIDIVKYVFSAYKRESPLIVNTMGWVSDQGLLLLIDLIRLLSPSHVVQFRSDHSKYMPDLTPQYVDDMDGLYTKSKTKMRNRRFRLAAFADALEFADEEKESPVEFTGHKLIGVYTDFAFRITPRNRESHNKILRDLSILSYLSQLQPPMPKPLSPLHSLTPYQVPFNAVALRITHSDVAPTHILYAVNASWVGLCKIQDDVRGYTNGPILLAQTPICDCLGFGICRGIDMEKRLYHILTPVPPEELRTVNCLLVGAIAIPHCVLKCQRGIEGTVPYVTTDYNFKLPGASEKIGAREPEEAHKEKPYRRPKFCRKMK
Regarding B3, the binding entry in test [2], in test [3] and in test [4] was “binds” in each case.

B4: V5-tagged USP36 (enzyme, UniProt Q9P275 1-1123)
chain: MPIVDKLKEALKPGRKDSADDGELGKLLASSAKKVLLQKIEFEPASKSFSYQLEALKSKYVLLNPKTEGASRHKSGDDPPARRQGSEHTYESCGDGVPAPQKVLFPTERLSLRWERVFRVGAGLHNLGNTCFLNATIQCLTYTPPLANYLLSKEHARSCHQGSFCMLCVMQNHIVQAFANSGNAIKPVSFIRDLKKIARHFRFGNQEDAHEFLRYTIDAMQKACLNGCAKLDRQTQATTLVHQIFGGYLRSRVKCSVCKSVSDTYDPYLDVALEIRQAANIVRALELFVKADVLSGENAYMCAKCKKKVPASKRFTIHRTSNVLTLSLKRFANFSGGKITKDVGYPEFLNIRPYMSQNNGDPVMYGLYAVLVHSGYSCHAGHYYCYVKASNGQWYQMNDSLVHSSNVKVVLNQQAYVLFYLRIPGSKKSPEGLISRTGSSSLPGRPSVIPDHSKKNIGNGIISSPLTGKRQDSGTMKKPHTTEEIGVPISRNGSTLGLKSQNGCIPPKLPSGSPSPKLSQTPTHMPTILDDPGKKVKKPAPPQHFSPRTAQGLPGTSNSNSSRSGSQRQGSWDSRDVVLSTSPKLLATATANGHGLKGNDESAGLDRRGSSSSSPEHSASSDSTKAPQTPRSGAAHLCDSQETNCSTAGHSKTPPSGADSKTVKLKSPVLSNTTTEPASTMSPPPAKKLALSAKKASTLWRATGNDLRPPPPSPSSDLTHPMKTSHPVVASTWPVHRARAVSPAPQSSSRLQPPFSPHPTLLSSTPKPPGTSEPRSCSSISTALPQVNEDLVSLPHQLPEASEPPQSPSEKRKKTFVGEPQRLGSETRLPQHIREATAAPHGKRKRKKKKRPEDTAASALQEGQTQRQPGSPMYRREGQAQLPAVRRQEDGTQPQVNGQQVGCVTDGHHASSRKRRRKGAEGLGEEGGLHQDPLRHSCSPMGDGDPEAMEESPRKKKKKKRKQETQRAVEEDGHLKCPRSAKPQDAVVPESSSCAPSANGWCPGDRMGLSQAPPVSWNGERESDVVQELLKYSSDKAYGRKVLTWDGKMSAVSQDAIEDSRQARTETVVDDWDEEFDRGKEKKIKKFKREKRRNFNAFQKLQTRRNFWSVTHPAKAASLSYRR
Consider B4, for which the binding result in test [5] and in test [6] was “binds” each time.
